Experiments:
[1] = test system: Saccharomyces cerevisiae ATCC 9763
[2] = test system: Candida parapsilosis ATCC 22019
[3] = test system: Candida glabrata ATCC 90030
[4] = test system: Candida albicans ATCC 10231

SMILES: N=C(N)NCCC[C@H](NC(=O)[C@H](CCCNC(=N)N)NC(=O)[C@H](CCCNC(=N)N)NC(=O)[C@H](CCCNC(=N)N)NC(=O)[C@H](CCCNC(=N)N)NC(=O)[C@H](CCCNC(=N)N)NC(=O)[C@H](CCCNC(=N)N)NC(=O)[C@@H](N)CCCNC(=N)N)C(=O)NCCNc1ccc2ncn3c4ccc(O)cc4c(=O)c1c23 [Compound 1-R8]
- IC50 HEK293/MIC90 (mycostatic selectivity index) ([1]; HEK293 vs Saccharomyces cerevisiae ATCC 9763): 2.22
- IC50 HEPG2/MIC90 (mycostatic selectivity index) ([1]; HEPG2 vs Saccharomyces cerevisiae ATCC 9763): 1.58
- IC50 HEK293/MIC90 (mycostatic selectivity index) ([2]; HEK293 vs Candida parapsilosis ATCC 22019): 8.88
- IC50 HEPG2/MIC90 (mycostatic selectivity index) ([2]; HEPG2 vs Candida parapsilosis ATCC 22019): 6.33
- IC50 HEK293/MIC90 (mycostatic selectivity index) (Candida krusei ATCC 6258; HEK293 vs Candida krusei ATCC 6258): 4.44
- IC50 HEPG2/MIC90 (mycostatic selectivity index) (Candida krusei ATCC 6258; HEPG2 vs Candida krusei ATCC 6258): 3.17
- IC50 HEK293/MIC90 (mycostatic selectivity index) ([3]; HEK293 vs Candida glabrata ATCC 90030): 0.56
- IC50 HEPG2/MIC90 (mycostatic selectivity index) ([3]; HEPG2 vs Candida glabrata ATCC 90030): 0.40
- IC50 HEK293/MIC90 (mycostatic selectivity index) ([4]; HEK293 vs Candida albicans ATCC 10231, MIC converted to micromolar): 2.22
- IC50 HEPG2/MIC90 (mycostatic selectivity index) ([4]; HEPG2 vs Candida albicans ATCC 10231): 1.58

Reference: article PMC8705783, “The Effect of Conjugation with Octaarginine, a Cell-Penetrating Peptide on Antifungal Activity of Imidazoacridinone Derivative” (International Journal of Molecular Sciences, 2021)
